Patent US12503436B2, “Compounds and compositions for treating conditions associated with STING activity” (NOVARTIS PHARMA AG, priority 2021, dated 2025)

Chains of the proteins cited; added tags and fusions are not shown.
UniProt Q86WV6, whole entry R71H/G230A/H232R/R293Q: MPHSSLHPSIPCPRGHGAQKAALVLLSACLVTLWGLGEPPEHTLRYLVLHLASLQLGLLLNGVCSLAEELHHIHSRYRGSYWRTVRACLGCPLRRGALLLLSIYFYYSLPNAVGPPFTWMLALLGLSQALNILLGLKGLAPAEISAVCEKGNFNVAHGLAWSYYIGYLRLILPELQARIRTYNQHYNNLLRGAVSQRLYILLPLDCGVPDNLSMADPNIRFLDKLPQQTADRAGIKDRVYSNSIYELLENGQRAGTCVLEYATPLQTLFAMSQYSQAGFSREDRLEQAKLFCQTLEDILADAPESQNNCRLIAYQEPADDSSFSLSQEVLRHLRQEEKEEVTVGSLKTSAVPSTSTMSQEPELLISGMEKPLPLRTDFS

Target: STING (Homo sapiens, UniProt Q86WV6, G230A/H232R/R293Q/R71H)
Assay: STING reporter assay in THP1-Dual KO-IFNAR2 cells (2′3′cGAMP stimulation, luciferase reporter)
Settings: read-out: Pharmaron, THP1_IFNAR2 STING 24 h Luci Normalized: GeoMean EC50, 15 μM 2′3′cGAMP stimulation
Protocol: STING pathway activation by the compounds described herein was measured using THP1-Dual™ cells (KO-IFNAR2).
THP1-Dual™ KO-IFNAR2 Cells (obtained from InvivoGen) were maintained in RPMI, 10% FCS, 5 ml P/S, 2 mM L-glut, 10 mM Hepes, and 1 mM sodium pyruvate. Compounds were spotted in empty 384 well tissue culture plates (Greiner 781182) by Echo for a final concentration of 0.0017-100 μM. Cells were plated into the TC plates at 40 μL per well, 2×10E6 cells/mL. For activation with STING ligand, 2′3′cGAMP (MW 718.38, obtained from Invivogen), was prepared in Optimem media.
The following solutions were prepared for each 1×384 plate: • Solution A: 2 mL Optimem with one of the following stimuli: • 60 μL of 10 mM 2′3′cGAMP→150 μM stock • Solution B: 2 mL Optimem with 60 μL Lipofectamine 2000→Incubate 5 min at RT
2 mL of solution A and 2 ml Solution B was mixed and incubated for 20 min at room temperature (RT). […] Luciferase reporter activity was then measured. EC50 values were calculated by using standard methods known in the art.
Luciferase reporter assay: 10 μL of supernatant from the assay was transferred to white 384-plate with flat bottom and squared wells. […] Luminescence was measured on a Platereader (e.g., Spectramax I3X (Molecular Devices GF3637001)).
Luciferase reporter activity was then measured. EC50 values were calculated by using standard methods known in the art.

| EC50 [nM] | Structure (SMILES) |
| --- | --- |
| 1000 to 5000 | CC(=O)Nc1c[nH]c2c(C)cc(OCCc3ccc(C(F)(F)F)cc3)nc12 |
| 200 to 1000 | CC(=O)Nc1c[nH]c2ccc(CCCn3cc(C(F)(F)F)cn3)cc12 |

The match of structure and compound is tentative.
